Laboratory results: PubChem BioAssay AID1259308 (NCATS, 2017)

- Assay: 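Knock-downs that increase output of a recombinant reporter protein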 (primary screen)
- System: human HEK293 embryonic kidney cells stably expressing firefly luciferase (HEK-CMV-Luc2-Hygro)
- Knock-down reagent: single siRNA against human genes, 0.8 pmol siRNA per well
- Duration: 72 h
- Detection: 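Luciferase light (ONE-Glo) measured on one replicate plate set and viability (CellTiter-Glo) on the other, scaled to a negative control siRNA, with robust z-scores and luciferase per cell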
- Scale: total luciferase, z-score: higher = more reporter protein produced
- Hit rule: 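Active when the median/MAD z-score for overall luciferase is greater than 3; a gene was taken forward for validation with new siRNAs if at least two of its three siRNAs passed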
- Calls: active = raised luciferase; inactive = no rise
Shown is a random part of about 59,000 reagents tested. About 1,510 of them (2.6%) were called active. 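Calls use total luciferase alone and ignore viability, so some active siRNAs may act by altering cell number.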 A number with no mark means an inactive call. Reagents against one gene are numbered here. Further read-outs or replicates are left out here. No sequences are given here.

{"gene": "DDX59", "reagent": 1, "total luciferase, z-score": 0.0343}
{"gene": "DDX59", "reagent": 2, "total luciferase, z-score": -0.0441}
{"gene": "DDX59", "reagent": 3, "total luciferase, z-score": 1.08}
{"gene": "PUM2", "reagent": 1, "total luciferase, z-score": -0.298}
{"gene": "PUM2", "reagent": 2, "total luciferase, z-score": -0.404}
{"gene": "PUM2", "reagent": 3, "total luciferase, z-score": -0.151}
{"gene": "PCDH11Y", "reagent": 1, "total luciferase, z-score": -0.622}
{"gene": "PCDH11Y", "reagent": 2, "total luciferase, z-score": -0.083}
{"gene": "PCDH11Y", "reagent": 3, "total luciferase, z-score": -0.00184}
{"gene": "EOLA2", "reagent": 1, "total luciferase, z-score": 0.692}
{"gene": "EOLA2", "reagent": 2, "total luciferase, z-score": -0.878}
{"gene": "EOLA2", "reagent": 3, "total luciferase, z-score": -1.82}
{"gene": "CELF3", "reagent": 1, "total luciferase, z-score": -2.97}
{"gene": "CELF3", "reagent": 2, "total luciferase, z-score": 0.157}
{"gene": "CELF3", "reagent": 3, "total luciferase, z-score": 0.17}
{"gene": "PLG", "reagent": 1, "total luciferase, z-score": -1.16}
{"gene": "PLG", "reagent": 2, "total luciferase, z-score": -0.874}
{"gene": "PLG", "reagent": 3, "total luciferase, z-score": -0.0207}
{"gene": "SZRD1", "reagent": 1, "total luciferase, z-score": 1.28}
{"gene": "SZRD1", "reagent": 2, "total luciferase, z-score": 1.24}
{"gene": "SZRD1", "reagent": 3, "total luciferase, z-score": -0.3}
{"gene": "OVCH1", "reagent": 1, "total luciferase, z-score": 1.06}
{"gene": "OVCH1", "reagent": 2, "total luciferase, z-score": 0.387}
{"gene": "OVCH1", "reagent": 3, "total luciferase, z-score": 1.95}
{"gene": "CAMSAP3", "reagent": 1, "total luciferase, z-score": -0.773}
{"gene": "CAMSAP3", "reagent": 2, "total luciferase, z-score": 0.87}
{"gene": "CAMSAP3", "reagent": 3, "total luciferase, z-score": 0.288}
{"gene": "HMG20A", "reagent": 1, "total luciferase, z-score": -1.61}
{"gene": "HMG20A", "reagent": 2, "total luciferase, z-score": 0.221}
{"gene": "HMG20A", "reagent": 3, "total luciferase, z-score": -1.88}
{"gene": "CORO2B", "reagent": 1, "total luciferase, z-score": 0.153}
{"gene": "CORO2B", "reagent": 2, "total luciferase, z-score": 0.132}
{"gene": "CORO2B", "reagent": 3, "total luciferase, z-score": -0.488}
{"gene": "TMEM202", "reagent": 1, "total luciferase, z-score": -0.403}
{"gene": "TMEM202", "reagent": 2, "total luciferase, z-score": 1.03}
{"gene": "TMEM202", "reagent": 3, "total luciferase, z-score": 0.243}
{"gene": "MAGEA10", "reagent": 1, "total luciferase, z-score": -0.555}
{"gene": "MAGEA10", "reagent": 2, "total luciferase, z-score": 1.27}
{"gene": "MAGEA10", "reagent": 3, "total luciferase, z-score": 0.986}
{"gene": "COXFA4", "reagent": 1, "total luciferase, z-score": 0.0615}
{"gene": "COXFA4", "reagent": 2, "total luciferase, z-score": -0.877}
{"gene": "COXFA4", "reagent": 3, "total luciferase, z-score": 0.49}

2 successive records already listed, quoted:
{"gene": "CAMSAP3", "reagent": 1, "total luciferase, z-score": -0.773}
{"gene": "CAMSAP3", "reagent": 2, "total luciferase, z-score": 0.87}
